Assay results taken from patent US20070178101A1.
These are yes or no findings as the source states them, for the method shown. Some entries that bind do so weakly or less than the wild type.

Experiments:
[1] = biological target: T1, Ovr110 on transiently transfected 293F cells (human) (UniProt Q7Z7D3); assay: FACS (legend of FIG. 7)
T1 sequence: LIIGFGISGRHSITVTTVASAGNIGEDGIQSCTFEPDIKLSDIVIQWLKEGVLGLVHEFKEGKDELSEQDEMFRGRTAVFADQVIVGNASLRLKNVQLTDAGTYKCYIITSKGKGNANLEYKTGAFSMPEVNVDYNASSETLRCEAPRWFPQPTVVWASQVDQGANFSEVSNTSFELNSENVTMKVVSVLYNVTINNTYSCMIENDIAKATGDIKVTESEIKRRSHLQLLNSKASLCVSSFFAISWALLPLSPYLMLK

[2] = biological target: T1, Ovr110 on transiently transfected 293F cells (human); assay: FACS, Ovr110-293F cells

B1: BTLA5NT_mFc (Fc fusion)
chain: KESCDVQLYIKRQSEHSILAGDPFELECPVKYCANRPHVTWCKLNGTTCVKLEDRQTSWKEEKNISFFILHFEPVLPNDNGSYRCSANFQSNLIESHSTTLYVTDVKSASERPSKDEMASRPASENLYFQGPRGPTIKPCPPCKCPAPNLLGGPSVFIFPPKIKDVLMISLSPIVTCVVVDVSEDPDVQISWFVNNVEVHTAQTQTHREDYNSTLRVVSALPIQHQDWMSGKEFKCKVNNKDLPAPIERTISKPKGVRAPQVYVLPPPEEEMTKKQVTLTCMVTDFMPEDIYVEWTNNGKTELNYKNTEPVLDSDGSYFMYSKLRVEKNWVERNSYSCSVVHEGLHNHHTTKSFSRTPGK
[1]
  binding: binds
[2]
  binding: binds
